Measurements reported in article doi:10.1101/2020.03.29.015024.
Results are given in words; binding and its absence hold for the method and conditions named. Binding seen in cells or lysates may run through a third protein. Some entries that bind do so weakly or less than the wild type. Tags and fused reporters may be left off the sequences shown. Each block holds one binder with its values, some of them ahead of it.

By UniProt entry, the sequences of proteins in these tests, tags left out.
UniProt Q9Z2C8: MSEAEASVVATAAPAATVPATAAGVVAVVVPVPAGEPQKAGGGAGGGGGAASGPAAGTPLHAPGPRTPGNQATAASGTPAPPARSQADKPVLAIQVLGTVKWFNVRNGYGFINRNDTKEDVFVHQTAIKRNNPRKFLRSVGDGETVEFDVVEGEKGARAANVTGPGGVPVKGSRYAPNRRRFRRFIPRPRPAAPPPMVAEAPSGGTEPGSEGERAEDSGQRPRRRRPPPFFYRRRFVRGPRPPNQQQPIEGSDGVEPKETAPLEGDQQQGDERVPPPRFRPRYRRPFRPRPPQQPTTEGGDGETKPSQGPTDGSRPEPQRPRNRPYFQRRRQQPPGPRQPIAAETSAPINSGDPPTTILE
UniProt P62631: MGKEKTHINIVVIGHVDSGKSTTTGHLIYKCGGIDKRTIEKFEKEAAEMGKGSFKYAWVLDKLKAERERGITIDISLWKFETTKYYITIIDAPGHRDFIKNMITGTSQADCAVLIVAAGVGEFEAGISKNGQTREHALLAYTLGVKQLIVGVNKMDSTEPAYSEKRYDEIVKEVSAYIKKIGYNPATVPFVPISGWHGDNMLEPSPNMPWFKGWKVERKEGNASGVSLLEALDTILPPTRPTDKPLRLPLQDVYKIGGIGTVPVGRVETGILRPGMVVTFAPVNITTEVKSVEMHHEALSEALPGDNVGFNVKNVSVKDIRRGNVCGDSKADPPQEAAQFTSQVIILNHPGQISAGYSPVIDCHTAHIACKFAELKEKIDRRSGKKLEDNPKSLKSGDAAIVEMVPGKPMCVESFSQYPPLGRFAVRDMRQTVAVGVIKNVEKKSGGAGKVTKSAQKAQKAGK
UniProt P10126: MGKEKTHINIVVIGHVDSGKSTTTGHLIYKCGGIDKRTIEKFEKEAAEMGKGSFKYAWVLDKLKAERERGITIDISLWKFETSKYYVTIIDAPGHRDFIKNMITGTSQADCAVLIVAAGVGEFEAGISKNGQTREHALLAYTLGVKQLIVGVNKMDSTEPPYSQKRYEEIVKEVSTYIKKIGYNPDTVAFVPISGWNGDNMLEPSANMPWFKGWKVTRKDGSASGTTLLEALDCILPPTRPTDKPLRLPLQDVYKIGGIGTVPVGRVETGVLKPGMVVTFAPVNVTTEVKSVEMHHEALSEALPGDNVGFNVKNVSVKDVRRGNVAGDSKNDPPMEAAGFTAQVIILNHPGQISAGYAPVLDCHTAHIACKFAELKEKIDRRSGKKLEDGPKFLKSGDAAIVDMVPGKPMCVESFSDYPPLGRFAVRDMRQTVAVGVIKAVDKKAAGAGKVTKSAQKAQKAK
UniProt Q9JMB7: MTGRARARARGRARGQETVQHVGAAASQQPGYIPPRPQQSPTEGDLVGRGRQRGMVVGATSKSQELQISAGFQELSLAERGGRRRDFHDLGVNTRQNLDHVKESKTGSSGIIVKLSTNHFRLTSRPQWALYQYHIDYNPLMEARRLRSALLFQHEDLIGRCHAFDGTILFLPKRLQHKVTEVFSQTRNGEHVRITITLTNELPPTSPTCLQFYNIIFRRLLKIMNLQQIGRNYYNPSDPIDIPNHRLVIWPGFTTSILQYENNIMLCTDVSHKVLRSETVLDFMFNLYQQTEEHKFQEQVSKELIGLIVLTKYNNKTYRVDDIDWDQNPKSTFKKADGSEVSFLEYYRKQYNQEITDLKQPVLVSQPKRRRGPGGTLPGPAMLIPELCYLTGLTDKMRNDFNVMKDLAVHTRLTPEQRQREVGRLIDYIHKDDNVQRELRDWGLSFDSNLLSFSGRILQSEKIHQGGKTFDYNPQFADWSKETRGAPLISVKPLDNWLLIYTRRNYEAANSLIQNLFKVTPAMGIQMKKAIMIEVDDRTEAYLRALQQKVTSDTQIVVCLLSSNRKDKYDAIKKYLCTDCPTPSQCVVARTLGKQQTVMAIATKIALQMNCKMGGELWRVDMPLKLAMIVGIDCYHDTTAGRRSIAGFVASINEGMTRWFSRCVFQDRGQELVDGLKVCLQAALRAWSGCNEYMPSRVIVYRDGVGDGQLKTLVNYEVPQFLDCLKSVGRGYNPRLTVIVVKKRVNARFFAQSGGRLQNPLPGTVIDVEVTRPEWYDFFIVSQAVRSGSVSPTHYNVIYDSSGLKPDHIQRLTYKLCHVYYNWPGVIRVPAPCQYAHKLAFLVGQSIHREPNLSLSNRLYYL

Columns and labels:
Test in all cases: co-IP
[1] = target: T1, Mitofusin 1 (MFN1) (mouse (endogenous in testis)) (UniProt Q811U4)
T1 sequence: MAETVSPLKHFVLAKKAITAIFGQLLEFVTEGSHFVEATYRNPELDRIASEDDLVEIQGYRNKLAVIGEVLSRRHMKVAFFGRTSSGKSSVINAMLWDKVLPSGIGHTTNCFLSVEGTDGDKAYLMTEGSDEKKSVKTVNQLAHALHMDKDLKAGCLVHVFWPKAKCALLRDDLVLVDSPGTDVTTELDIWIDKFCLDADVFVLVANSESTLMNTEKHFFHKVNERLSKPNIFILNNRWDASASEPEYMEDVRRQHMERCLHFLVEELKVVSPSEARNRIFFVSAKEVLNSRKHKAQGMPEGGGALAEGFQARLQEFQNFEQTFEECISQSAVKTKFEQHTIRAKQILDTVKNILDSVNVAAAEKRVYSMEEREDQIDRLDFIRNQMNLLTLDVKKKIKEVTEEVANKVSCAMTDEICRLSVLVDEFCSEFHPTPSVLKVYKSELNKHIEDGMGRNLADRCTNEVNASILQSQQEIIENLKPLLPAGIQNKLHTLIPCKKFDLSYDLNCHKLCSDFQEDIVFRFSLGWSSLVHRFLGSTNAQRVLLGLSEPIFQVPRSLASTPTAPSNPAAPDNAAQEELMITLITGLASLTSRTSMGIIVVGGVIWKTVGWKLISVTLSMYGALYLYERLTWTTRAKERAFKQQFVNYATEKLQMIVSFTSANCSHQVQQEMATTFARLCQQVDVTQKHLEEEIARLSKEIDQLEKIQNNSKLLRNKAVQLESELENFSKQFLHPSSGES

[2] = target: T2, DDX4 (mouse (endogenous in testis)) (UniProt Q61496)
T2 sequence: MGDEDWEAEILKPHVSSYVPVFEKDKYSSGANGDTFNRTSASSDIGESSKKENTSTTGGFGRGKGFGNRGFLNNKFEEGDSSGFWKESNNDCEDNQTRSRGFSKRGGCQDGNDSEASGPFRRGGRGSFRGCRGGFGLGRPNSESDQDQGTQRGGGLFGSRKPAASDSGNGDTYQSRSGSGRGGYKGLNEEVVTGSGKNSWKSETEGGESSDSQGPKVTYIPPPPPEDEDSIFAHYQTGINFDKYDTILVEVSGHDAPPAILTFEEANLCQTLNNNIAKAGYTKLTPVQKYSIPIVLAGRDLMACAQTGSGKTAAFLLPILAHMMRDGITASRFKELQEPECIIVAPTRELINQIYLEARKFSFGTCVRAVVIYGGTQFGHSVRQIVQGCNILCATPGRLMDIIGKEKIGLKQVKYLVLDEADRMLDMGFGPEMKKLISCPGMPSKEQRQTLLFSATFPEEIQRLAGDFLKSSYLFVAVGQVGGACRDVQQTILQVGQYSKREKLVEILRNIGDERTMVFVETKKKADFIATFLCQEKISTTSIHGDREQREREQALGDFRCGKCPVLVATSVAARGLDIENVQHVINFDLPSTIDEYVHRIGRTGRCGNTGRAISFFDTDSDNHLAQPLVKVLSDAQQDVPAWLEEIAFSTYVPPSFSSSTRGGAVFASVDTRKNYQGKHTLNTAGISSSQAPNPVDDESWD

[3] = target: MSY2 (mouse (endogenous in testis)) (UniProt Q9Z2C8)
[4] = target: T3, GASZ (mouse (endogenous in testis)) (UniProt Q8VD46)
T3 sequence: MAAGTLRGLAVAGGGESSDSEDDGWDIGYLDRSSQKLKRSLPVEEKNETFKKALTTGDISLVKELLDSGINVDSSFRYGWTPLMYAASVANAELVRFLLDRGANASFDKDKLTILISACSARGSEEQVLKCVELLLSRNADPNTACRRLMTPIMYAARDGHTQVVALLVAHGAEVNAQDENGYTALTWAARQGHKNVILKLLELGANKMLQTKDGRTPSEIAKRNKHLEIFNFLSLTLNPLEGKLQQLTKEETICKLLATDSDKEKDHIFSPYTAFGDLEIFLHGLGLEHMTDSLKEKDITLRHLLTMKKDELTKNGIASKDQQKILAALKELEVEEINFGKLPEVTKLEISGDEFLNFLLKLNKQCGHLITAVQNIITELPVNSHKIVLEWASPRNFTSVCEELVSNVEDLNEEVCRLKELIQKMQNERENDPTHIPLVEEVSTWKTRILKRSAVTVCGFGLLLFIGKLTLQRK

[5] = target: T4, TDRKH (mouse (endogenous in testis)) (UniProt Q80VL1)
T4 sequence: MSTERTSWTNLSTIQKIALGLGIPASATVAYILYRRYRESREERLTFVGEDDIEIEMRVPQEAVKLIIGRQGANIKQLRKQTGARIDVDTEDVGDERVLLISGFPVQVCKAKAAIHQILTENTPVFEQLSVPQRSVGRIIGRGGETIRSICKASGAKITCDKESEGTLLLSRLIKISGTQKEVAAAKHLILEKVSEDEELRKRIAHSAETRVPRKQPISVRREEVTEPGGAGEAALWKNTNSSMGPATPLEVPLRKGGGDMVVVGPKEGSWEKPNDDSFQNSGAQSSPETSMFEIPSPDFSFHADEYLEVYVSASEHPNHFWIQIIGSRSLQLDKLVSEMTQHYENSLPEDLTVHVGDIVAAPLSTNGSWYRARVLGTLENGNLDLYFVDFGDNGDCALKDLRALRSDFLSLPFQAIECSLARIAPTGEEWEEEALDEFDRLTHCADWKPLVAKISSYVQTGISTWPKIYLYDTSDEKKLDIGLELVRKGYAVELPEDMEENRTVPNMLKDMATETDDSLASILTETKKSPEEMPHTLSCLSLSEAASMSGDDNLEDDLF

[6] = target: eukaryotic elongation factor 1 alpha 2 (eEF1A2) (mouse (endogenous in testis)) (UniProt P62631)
[7] = target: eukaryotic elongation factor 1 alpha 1 (eEF1A1) (mouse (endogenous in testis)) (UniProt P10126)
[8] = target: MIWI (mouse (endogenous in testis)) (UniProt Q9JMB7)
[9] = target: T5, MYC-tagged full-length DDX4 (mouse) (UniProt Q61496)
T5 sequence: T2 sequence

[10] = target: MYC-tagged full-length MIWI (mouse) (UniProt Q9JMB7)
[11] = target: MYC-tagged full-length MSY2 (mouse) (UniProt Q9Z2C8)
[12] = target: T6, MYC-tagged full-length TDRKH (mouse) (UniProt Q80VL1)
T6 sequence: T4 sequence

binding [1]: binds | binding [2]: binds | binding [3]: binds | binding [4]: binds | binding [5]: binds | binding [6]: binds | binding [7]: binds | binding [8]: binds
B1: Mitofusin 2 (MFN2) (protein, UniProt Q80U63 1-757)
chain: MSLLFSRCNSIVTVKKDKRHMAEVNASPLKHFVTAKKKINGIFEQLGAYIQESASFLEDTHRNTELDPVTTEEQVLDVKGYLSKVRGISEVLARRHMKVAFFGRTSNGKSTVINAMLWDKVLPSGIGHTTNCFLRVGGTDGHEAFLLTEGSEEKKSVKTVNQLAHALHQDEQLHAGSMVSVMWPNSKCPLLKDDLVLMDSPGIDVTTELDSWIDKFCLDADVFVLVANSESTLMQTEKQFFHKVSERLSRPNIFILNNRWDASASEPEYMEEVRRQHMERCTSFLVDELGVVDRAQAGDRIFFVSAKEVLSARVQKAQGMPEGGGALAEGFQVRMFEFQNFERQFEECISQSAVKTKFEQHTVRAKQIAEAVRLIMDSLHIAAQEQRVYCLEMREERQDRLRFIDKQLELLAQDYKLRIKQITEEVERQVSTAMAEEIRRLSVLVDEYQMDFHPSPVVLKVYKNELHRHIEEGLGRNLSDRCSTAIASSLQTMQQDMIDGLKPLLPVSMRNQIDMLVPRQCFSLSYDLNCDKLCADFQEDIEFHFSLGWTMLVNRFLGPKNSRRALLGYSDQVQRPLPLTPANPSMPPLPQSSLTQEELMVSMVTGLASLTSRTSMGILVVGGVVWKAVGWRLIALSFGLYGLLYVYERLTWTTKAKERAFKRQFVEYASEKLQLIISYTGSNCSHQVQQELSGTFAHLCQQVDITRDNLEQEIAAMNKKVEALDSLQSRAKLLRNKAGWLDSELNMFTHQYLQPSR

binding [9]: binds | binding [10]: binds | binding [11]: binds | binding [12]: binds
B2: 2X FLAG-tagged full-length MFN2 (protein, UniProt Q80U63 1-757)
chain: B1 chain
